Test results from paper PMC10163288.
Some of the results follow.

B1: il2ra_site1_2b5i_sap_10_mot_1b7c2b8d5952c6b49ef050017b44e09d_0001_af2_000000258_0001_1_14_H_._HHH_b1_00216_0001_0001900080_0000001_1_0001_af2pred_dldesign_0_af2 … (protein)
chain: SSSSSSGEEIRELLRKANALKQAGKAEEARKALEEALELAKKAGSNLWIKFIESALKQLESSSSS
B2: il2ra_site1_1z92_sap_24_mot_HHH_b1_08133_000000119_0001_1_19_H_._HHH_b1_00473_af2_0001_0000100001_0000001_0_0001 (protein)
chain: SSSSDEKAEEWLEFLRQQLEIAKRNNNERLLEWALELLEALARLHNDPEAEELIKELQELLSSSS
B3: il2ra_site2_3nfp_normal_mot_HHH_b2_04451_000000238_0001_21_37_H_._HHH_b1_06067_af2_0001_0000300023_0000001_0 (protein)
chain: SSSSDIEEEIKELLEEAEKLLEEGNRYEALELVARASELATEIQNPELARAILRLFLEIQSSSSS
B4: il2ra_site1_1z92_sap_20_mot_HHH_b2_03302_000000138_0001_21_37_H_._HHH_b1_01973_af2_0001_0000200009_0000001_0_0001 (protein)
chain: SSSSDEVREIAELVAKVAAKFKLDWEDLKILDEVALRLLERGVSEEEIEELLEEEAEKLQSSSSS
B5: il2ra_site2_2erj_normal_mot_HHH_b2_03383_af2_000000035_0001_21_37_H_._HHH_b2_06641_0001_0000600028_0000001_0 (protein)
chain: SSSSDVEERVEELLQEAERLLEEGNPEEAEKLVSEAFELAYEANDPRLAALVIEVAQKIFKSSSS
B6: il2ra_site2_2erj_sap_25_mot_35d2dc24e2c4431f89e6f806b163ecf8_0001_af2_000000103_0001_35_49_H_._HHH_b2_01993_0001_0000500009_0000001_0_0001 (protein)
chain: SSSSDVEERVKELLEEIERAYEEGDLHEAFRLMDEVFHVAAKNQNEELLQEISELLQRLSGSSSS
B7: il2ra_site2_3nfp_normal_mot_HHH_b1_05627_af2_000000038_0001_43_56_H_._HHH_b1_04379_0001_0000100005_0000001_1 (protein)
chain: SSSSDKAEEYLEVALLTLEELIREGSEEAVEEVIEAIESLAEALNDEEIEERLRKLEEEFSSSSS
B8: il2ra_site1_3nfp_normal_mot_b176b53c9fc434b7e847e53bae38b177_0001_000000049_0001_1_15_H_._4da89dcd188de4ef9c33b420109b66a0_0001_0001_0000500014_0000001_1 (protein)
chain: SVEELVERIVREGDPRLEEEFEELVREISEKHDPELAEAIIRVLARLQRINPELVRRLRELLVRT
B9: il2ra_site1_1z92_normal_mot_6c2800a769814540b5b47941e710ff28_0001_af2_000000005_0001_35_49_H_._6228ca5b8b091676f337a4c0a06dbe92_0001_0003_0000300038_0000001_0 (protein)
chain: DEFLIEQLLRKIEAGNEESAERIIERLLKNAGIPPEEVERIVEELLKLLKDGDPEEARKLLREAP
B10: il2ra_site1_1z92_sap_20_mot_HHH_b1_00368_000000203_0001_23_39_H_._HHH_b2_00211_af2_0001_0000100014_0000001_0_0001 (protein)
chain: PEYLEEDFERARQLGIPPEKVAMALLKALKAQGIPPEEVEELVEEVLELLLGDPEEAKRVLRRAK
B11: il2ra_site1_3nfp_sap_16_mot_HHH_b1_07204_af2_000000187_0001_41_55_H_._HHH_b1_00144_af2_0001_0000400024_0000001_0_0001 (protein)
chain: SSSSDQELARAVDEALRLAMRLGDHELAQRLFEIAMRLAREGDERLHEELEELIEEVEKLGSSSS
B12: il2ra_site2_2erj_sap_20_mot_HHH_b1_02757_000000041_0001_41_57_H_._HHH_b1_08686_0001_0000300033_0000001_0_0001 (protein)
chain: SSSSSESLEALEEMLEELFKEGNRSSIELILRFLEASYKKTGDPELERLIELARELLEELSSSSS
B13: il2ra_site1_1z92_normal_mot_HHH_b1_04602_000000153_0001_1_19_H_._HHH_b1_02055_0001_0000300044_0000001_1_af2pred_0001_1_af2pred_swapped (protein)
chain: SSSDLEELSQFAIRVIVELFREFKLSEEQLKELLELAAELVQRGVSPEEIEEELRELAEELSSSS
B14: il2ra_site1_2b5i_normal_mot_b9b1aa0f98829a21a591038753170461_0001_1_000000144_0001_35_50_H_._HHH_b1_01017_0001_0000300020_0000001_0_af2pred_0001_af2pred (protein)
chain: SSSTDERMRRFIEARIEILEELGNPEAVEELEELLEEVKQKNDEELLLELARLAYRLLREAKSSS
B15: il2ra_site1_3nfp_normal_mot_1d0af4279e6cd48282cc3e51f763a6be_0001_000000077_0001_33_47_H_._HEEHE_3114_0001_0000100004_0000001_0 (protein)
chain: TDARVASKIIKRALEALGAKSFEVEVENNRVTVEVEGDDEESELVERAAEEAAKAVGVPVEVESV
B16: il2ra_site1_1z92_normal_mot_b1fbee8209167eaadba3689d49187f1a_0001_1_af2_000000019_0001_16_31_H_._8e6b26e28a7d461b936e264dc559eb07_0001_af2_0001_0000100004_00000 … (protein)
chain: DEEELRRLLEELIPDPKEVEALQRLFERSKKLGIPPEKILEALLRAARRAGDEEAEEALEIILRR
B17: il2ra_site2_3nfp_normal_mot_HHH_b2_00746_000000285_0001_20_36_H_._HHH_b1_01280_0001_0000400032_0000001_0 (protein)
chain: SSSSSDEEVRELLEEAEELLKNGNPEEAKRVLARAALLAAEENDHELFALLNLLLEKIIQSSSSS
B18: il2ra_site1_3nfp_sap_18_mot_HHH_b2_00809_af2_000000121_0001_23_40_H_._HHH_b2_06352_af2_0001_0000300042_0000001_0_0001_af2pred_0001_af2pred_1_swapped (protein)
chain: SSSSTEELRKAQELIKQISELAKEGNPEEAEKVLEELRKLAEEANSPALKLFVERLERDIKSSSS

What follows are binders tested against il2ra, P01589 (assay: yeast display titration).

Apparent Kd, inactive:
B1 no binding seen
B2 no binding seen
B3 no binding seen
B4 no binding seen
B5 no binding seen
B6 no binding seen
B7 no binding seen
B8 no binding seen
B9 no binding seen
B10 no binding seen
B11 no binding seen
B12 no binding seen
B13 no binding seen
B14 no binding seen
B15 no binding seen
B16 no binding seen
B17 no binding seen
B18 no binding seen

A run of entries of the results above:
Apparent Kd, inactive:
B1 no binding seen
B2 no binding seen
B3 no binding seen
